# The list shows a part of the results. Values are raw readings; no control value is given beside them.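 In the initial screen, polymyxin B was used at a concentration that permeabilizes Salmonella's outer membrane but not its inner membrane. Maximum growth was set by DMSO wells with or without polymyxin B. Since plates varied, data were ranked per plate, and compounds giving the lowest OD600 advanced as hits.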
# Tested on: Salmonella enterica serovar Typhimurium SL1344
# Assay: bacterial growth OD600 after 18 h with compound and polymyxin B; higher = more bacterial growth (less inhibition)
# Conditions: 50 µM, Mueller-Hinton broth
Compound,bacterial growth OD600 (polymyxin B 0.75 µg/mL),bacterial growth OD600 (polymyxin B 1 µg/mL)
O=C1CCC(CCC(=O)N2CCCC(CCc3ccc(F)c(F)c3)C2)=NN1 (stereo unspecified),0.58,–
CN(C(=O)Cn1cccn1)C(Cc1ccccc1)C1CCN(C(=O)c2cnn(-c3ccccc3)c2)CC1 (stereo unspecified),0.767,–
CCN1CC(CNc2ccc(-c3nc(CC(C)C)no3)cn2)CC1=O (stereo unspecified),–,0.934
Cc1c(CC(=O)NC(C)(C)CO)c2c(n1Cc1ccccc1F)CCCC2=O,–,1.11
CCN(CC)c1ccc(C(=O)N2CCC(CN3CCCC3=O)CC2)cn1,–,0.961
CCCCNC(=O)NC1CC(=O)N(C2CCCCCC2)C1 (stereo unspecified),–,0.98
COc1ccc(C(=O)N2CCCC(c3nc(-c4ccncc4)ncc3-c3ccccc3C)C2)c(OC)c1 (stereo unspecified),0.008,–
O=C(c1cc2ccccc2o1)N1CCCC(Nc2ccc(F)c(F)c2)C1 (stereo unspecified),–,0.013
COCC(O)CNC(=O)C1CCN(c2nc(-c3ccccc3)nc3c2CCC3)CC1 (stereo unspecified),0.87,–
Cc1cccc(CCNC(=O)c2coc(COc3cccc(F)c3F)n2)n1,–,0.968
COc1cc(CN2CCOc3ccc(C(O)c4ccncc4)cc3C2)ccc1OCc1ccccc1 (stereo unspecified),-0.001,–
COc1ccc(C(=O)N2CCCC2)c(OC2CCN(Cc3ccc(Cl)c(F)c3)CC2)c1,0.735,–
O=C(NC1CCCC1)c1coc(COc2cccc(F)c2F)n1,–,0.837
Cc1ccccc1CCC1CCCN(C(=O)CCc2cccnc2)C1 (stereo unspecified),0.498,–
Cc1ccccc1-n1ncc(C(C)NC(=O)C[n+]2cc([O-])on2)c1C (stereo unspecified),0.739,–
CSc1ccc(C(=O)N2CCOc3ccc(CN4CCN(c5ccc(F)cc5)CC4)cc3C2)cc1,0.735,–

Compound,bacterial growth OD600 (polymyxin B 0.75 µg/mL),bacterial growth OD600 (polymyxin B 1 µg/mL)
O=C(c1ccoc1)N1CCCC(CCc2ccccc2)C1 (stereo unspecified),0.004,–
CCCCN(C)C(=O)C1CCCN(c2nc(C)c3ccc(S(C)(=O)=O)cc3n2)C1 (stereo unspecified),0.698,–
Cc1cc(C)n2nc(C(=O)N3CCCC(Nc4ccc(F)c(F)c4)C3)cc2n1 (stereo unspecified),–,0.845
COc1cccc(OC)c1CN1CCC(c2nc(-c3ccncc3)ncc2-c2cccc(C)c2)CC1,0.811,–
COC(=O)CCCC(=O)N1CCCC(Nc2ccc(C(C)C)cc2)C1 (stereo unspecified),–,0.936
Cn1c(C(=O)N2CCC(CCC(=O)NCc3cccnc3)CC2)cc2ccccc21,–,1.06
CCOC(=O)C1(CCCc2ccccc2)CCCN(C(=O)c2cc(C)c(C)[nH]c2=O)C1 (stereo unspecified),–,1.18
CCOC(=O)N1CCN(Cc2ccc3c(c2)CN(C(=O)C2Cc4ccccc4O2)CCO3)CC1 (stereo unspecified),0.777,–
O=C(COc1ccccc1)Nc1ccc(N2CCC(NC[C@H]3CCc4ccccc4O3)CC2)cc1,0.92,–
COCCn1cc(C(=O)NCCc2cccc(Cl)c2)c(=O)c(C(=O)N2CCCC(C)C2)c1 (stereo unspecified),0.828,–
COc1ccc(CN2CCCC(CCC(=O)NCc3ccc(OC)cc3OC)C2)cc1 (stereo unspecified),0.785,–
COC(=O)C1CCN(C(=O)c2oc3ccc(C)cc3c2C)CC1,–,1.07
COC(=O)CN(C)C(=O)CC(c1ccccc1)c1ccc(Cl)cc1 (stereo unspecified),–,0.714
C=CCN(CC=C)C(=O)c1cc(COc2c(C)cccc2C)on1,0.607,–
CCC1C(=O)NCCN1C(=O)c1csc2nc(-c3cccc(Cl)c3)cn12 (stereo unspecified),0.651,–

# Complete entries as entered above.
# Cn1c(C(=O)N2CCC(CCC(=O)NCc3cccnc3)CC2)cc2ccccc21 reads bacterial growth OD600 (polymyxin B 1 µg/mL): 1.06
# O=C(c1ccoc1)N1CCCC(CCc2ccccc2)C1 (stereo unspecified) reads bacterial growth OD600 (polymyxin B 0.75 µg/mL): 0.004

# Reference: the supplement of paper PMC12889115
